Data: article doi:10.1101/2022.07.11.499601
Results are given in words; binding and its absence hold for the method and conditions named. In cells and extracts the contact can be indirect. Some entries that bind do so weakly or less than the wild type.

Protein sequences, listed by entry. Tags and fused reporters are not part of them.
UniProt P49682: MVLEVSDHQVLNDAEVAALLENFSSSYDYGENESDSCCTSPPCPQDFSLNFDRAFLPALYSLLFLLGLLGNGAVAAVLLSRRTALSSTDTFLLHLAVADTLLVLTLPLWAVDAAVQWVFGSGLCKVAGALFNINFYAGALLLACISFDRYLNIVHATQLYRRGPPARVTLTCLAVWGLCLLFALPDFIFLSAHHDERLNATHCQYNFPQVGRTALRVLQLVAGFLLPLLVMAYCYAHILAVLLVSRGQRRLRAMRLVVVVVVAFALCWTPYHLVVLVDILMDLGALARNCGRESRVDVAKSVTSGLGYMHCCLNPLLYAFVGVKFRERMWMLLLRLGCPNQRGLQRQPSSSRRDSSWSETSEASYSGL
UniProt P25098: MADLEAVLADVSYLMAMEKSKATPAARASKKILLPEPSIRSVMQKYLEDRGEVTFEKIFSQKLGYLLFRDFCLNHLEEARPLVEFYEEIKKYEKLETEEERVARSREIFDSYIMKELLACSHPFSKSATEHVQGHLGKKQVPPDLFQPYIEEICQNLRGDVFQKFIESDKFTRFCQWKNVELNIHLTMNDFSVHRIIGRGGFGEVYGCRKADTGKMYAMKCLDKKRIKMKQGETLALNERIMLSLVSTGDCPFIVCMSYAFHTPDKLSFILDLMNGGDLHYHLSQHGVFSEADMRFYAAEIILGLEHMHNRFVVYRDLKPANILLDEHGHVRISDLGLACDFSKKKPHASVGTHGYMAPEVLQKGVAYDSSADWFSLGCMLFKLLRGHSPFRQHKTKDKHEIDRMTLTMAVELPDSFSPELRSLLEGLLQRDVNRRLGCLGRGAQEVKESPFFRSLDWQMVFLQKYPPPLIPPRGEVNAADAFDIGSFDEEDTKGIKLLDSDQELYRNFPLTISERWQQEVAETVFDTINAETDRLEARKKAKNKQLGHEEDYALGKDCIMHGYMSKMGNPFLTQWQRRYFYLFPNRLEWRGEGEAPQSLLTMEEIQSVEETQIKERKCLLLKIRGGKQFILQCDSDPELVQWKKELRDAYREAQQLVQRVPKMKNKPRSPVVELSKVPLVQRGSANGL
UniProt P35626: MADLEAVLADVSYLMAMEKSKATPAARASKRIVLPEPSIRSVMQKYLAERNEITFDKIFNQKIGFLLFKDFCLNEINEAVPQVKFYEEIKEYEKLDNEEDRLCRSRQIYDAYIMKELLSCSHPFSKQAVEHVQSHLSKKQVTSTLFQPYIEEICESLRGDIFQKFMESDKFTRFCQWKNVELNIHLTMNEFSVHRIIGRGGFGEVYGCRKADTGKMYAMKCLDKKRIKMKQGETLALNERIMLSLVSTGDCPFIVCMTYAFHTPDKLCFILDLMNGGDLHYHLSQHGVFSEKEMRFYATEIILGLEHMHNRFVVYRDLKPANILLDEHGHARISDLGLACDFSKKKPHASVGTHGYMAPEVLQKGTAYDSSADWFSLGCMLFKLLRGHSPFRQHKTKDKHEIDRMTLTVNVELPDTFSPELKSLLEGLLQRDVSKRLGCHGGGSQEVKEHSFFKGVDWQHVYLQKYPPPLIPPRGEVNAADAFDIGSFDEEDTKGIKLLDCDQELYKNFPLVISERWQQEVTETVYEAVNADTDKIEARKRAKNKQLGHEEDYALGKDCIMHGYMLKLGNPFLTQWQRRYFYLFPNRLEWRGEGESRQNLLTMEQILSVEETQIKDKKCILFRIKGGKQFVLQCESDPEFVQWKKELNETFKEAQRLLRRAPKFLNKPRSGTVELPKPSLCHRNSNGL

Target: CXCR3-SmBiT (UniProt P49682)
Assay: split reporter

Substance | binding
GRK2-LgBiT (from UniProt P25098 1-689) (enzyme) | binds
GRK3-LgBiT (from UniProt P35626 1-688) (enzyme) | binds
